In US9457033B2, “Steroid alkaloids and uses thereof as antimicrobial agents against electron transport-deficient microbes and as potentiators for antimicrobial agents against pathogenic bacteria” (priority 2011, dated 2016):
Some results were stated once for a whole list of compounds, not compound by compound.

Test system: S. aureus SCV strain CF6A-S
Type: cell-based, Staphylococcus aureus
Conditions: multi-resistant

Work on gentamicin yielded an MIC greater than 32 µg/mL.
